These are yes or no findings as the source states them, for the method shown. Some binding calls cover weakened binding; strength is not graded here.

Chains of the proteins cited; added tags and fusions are not shown. Residues count along the entry.
UniProt Q91ZX7, residues 20-4545: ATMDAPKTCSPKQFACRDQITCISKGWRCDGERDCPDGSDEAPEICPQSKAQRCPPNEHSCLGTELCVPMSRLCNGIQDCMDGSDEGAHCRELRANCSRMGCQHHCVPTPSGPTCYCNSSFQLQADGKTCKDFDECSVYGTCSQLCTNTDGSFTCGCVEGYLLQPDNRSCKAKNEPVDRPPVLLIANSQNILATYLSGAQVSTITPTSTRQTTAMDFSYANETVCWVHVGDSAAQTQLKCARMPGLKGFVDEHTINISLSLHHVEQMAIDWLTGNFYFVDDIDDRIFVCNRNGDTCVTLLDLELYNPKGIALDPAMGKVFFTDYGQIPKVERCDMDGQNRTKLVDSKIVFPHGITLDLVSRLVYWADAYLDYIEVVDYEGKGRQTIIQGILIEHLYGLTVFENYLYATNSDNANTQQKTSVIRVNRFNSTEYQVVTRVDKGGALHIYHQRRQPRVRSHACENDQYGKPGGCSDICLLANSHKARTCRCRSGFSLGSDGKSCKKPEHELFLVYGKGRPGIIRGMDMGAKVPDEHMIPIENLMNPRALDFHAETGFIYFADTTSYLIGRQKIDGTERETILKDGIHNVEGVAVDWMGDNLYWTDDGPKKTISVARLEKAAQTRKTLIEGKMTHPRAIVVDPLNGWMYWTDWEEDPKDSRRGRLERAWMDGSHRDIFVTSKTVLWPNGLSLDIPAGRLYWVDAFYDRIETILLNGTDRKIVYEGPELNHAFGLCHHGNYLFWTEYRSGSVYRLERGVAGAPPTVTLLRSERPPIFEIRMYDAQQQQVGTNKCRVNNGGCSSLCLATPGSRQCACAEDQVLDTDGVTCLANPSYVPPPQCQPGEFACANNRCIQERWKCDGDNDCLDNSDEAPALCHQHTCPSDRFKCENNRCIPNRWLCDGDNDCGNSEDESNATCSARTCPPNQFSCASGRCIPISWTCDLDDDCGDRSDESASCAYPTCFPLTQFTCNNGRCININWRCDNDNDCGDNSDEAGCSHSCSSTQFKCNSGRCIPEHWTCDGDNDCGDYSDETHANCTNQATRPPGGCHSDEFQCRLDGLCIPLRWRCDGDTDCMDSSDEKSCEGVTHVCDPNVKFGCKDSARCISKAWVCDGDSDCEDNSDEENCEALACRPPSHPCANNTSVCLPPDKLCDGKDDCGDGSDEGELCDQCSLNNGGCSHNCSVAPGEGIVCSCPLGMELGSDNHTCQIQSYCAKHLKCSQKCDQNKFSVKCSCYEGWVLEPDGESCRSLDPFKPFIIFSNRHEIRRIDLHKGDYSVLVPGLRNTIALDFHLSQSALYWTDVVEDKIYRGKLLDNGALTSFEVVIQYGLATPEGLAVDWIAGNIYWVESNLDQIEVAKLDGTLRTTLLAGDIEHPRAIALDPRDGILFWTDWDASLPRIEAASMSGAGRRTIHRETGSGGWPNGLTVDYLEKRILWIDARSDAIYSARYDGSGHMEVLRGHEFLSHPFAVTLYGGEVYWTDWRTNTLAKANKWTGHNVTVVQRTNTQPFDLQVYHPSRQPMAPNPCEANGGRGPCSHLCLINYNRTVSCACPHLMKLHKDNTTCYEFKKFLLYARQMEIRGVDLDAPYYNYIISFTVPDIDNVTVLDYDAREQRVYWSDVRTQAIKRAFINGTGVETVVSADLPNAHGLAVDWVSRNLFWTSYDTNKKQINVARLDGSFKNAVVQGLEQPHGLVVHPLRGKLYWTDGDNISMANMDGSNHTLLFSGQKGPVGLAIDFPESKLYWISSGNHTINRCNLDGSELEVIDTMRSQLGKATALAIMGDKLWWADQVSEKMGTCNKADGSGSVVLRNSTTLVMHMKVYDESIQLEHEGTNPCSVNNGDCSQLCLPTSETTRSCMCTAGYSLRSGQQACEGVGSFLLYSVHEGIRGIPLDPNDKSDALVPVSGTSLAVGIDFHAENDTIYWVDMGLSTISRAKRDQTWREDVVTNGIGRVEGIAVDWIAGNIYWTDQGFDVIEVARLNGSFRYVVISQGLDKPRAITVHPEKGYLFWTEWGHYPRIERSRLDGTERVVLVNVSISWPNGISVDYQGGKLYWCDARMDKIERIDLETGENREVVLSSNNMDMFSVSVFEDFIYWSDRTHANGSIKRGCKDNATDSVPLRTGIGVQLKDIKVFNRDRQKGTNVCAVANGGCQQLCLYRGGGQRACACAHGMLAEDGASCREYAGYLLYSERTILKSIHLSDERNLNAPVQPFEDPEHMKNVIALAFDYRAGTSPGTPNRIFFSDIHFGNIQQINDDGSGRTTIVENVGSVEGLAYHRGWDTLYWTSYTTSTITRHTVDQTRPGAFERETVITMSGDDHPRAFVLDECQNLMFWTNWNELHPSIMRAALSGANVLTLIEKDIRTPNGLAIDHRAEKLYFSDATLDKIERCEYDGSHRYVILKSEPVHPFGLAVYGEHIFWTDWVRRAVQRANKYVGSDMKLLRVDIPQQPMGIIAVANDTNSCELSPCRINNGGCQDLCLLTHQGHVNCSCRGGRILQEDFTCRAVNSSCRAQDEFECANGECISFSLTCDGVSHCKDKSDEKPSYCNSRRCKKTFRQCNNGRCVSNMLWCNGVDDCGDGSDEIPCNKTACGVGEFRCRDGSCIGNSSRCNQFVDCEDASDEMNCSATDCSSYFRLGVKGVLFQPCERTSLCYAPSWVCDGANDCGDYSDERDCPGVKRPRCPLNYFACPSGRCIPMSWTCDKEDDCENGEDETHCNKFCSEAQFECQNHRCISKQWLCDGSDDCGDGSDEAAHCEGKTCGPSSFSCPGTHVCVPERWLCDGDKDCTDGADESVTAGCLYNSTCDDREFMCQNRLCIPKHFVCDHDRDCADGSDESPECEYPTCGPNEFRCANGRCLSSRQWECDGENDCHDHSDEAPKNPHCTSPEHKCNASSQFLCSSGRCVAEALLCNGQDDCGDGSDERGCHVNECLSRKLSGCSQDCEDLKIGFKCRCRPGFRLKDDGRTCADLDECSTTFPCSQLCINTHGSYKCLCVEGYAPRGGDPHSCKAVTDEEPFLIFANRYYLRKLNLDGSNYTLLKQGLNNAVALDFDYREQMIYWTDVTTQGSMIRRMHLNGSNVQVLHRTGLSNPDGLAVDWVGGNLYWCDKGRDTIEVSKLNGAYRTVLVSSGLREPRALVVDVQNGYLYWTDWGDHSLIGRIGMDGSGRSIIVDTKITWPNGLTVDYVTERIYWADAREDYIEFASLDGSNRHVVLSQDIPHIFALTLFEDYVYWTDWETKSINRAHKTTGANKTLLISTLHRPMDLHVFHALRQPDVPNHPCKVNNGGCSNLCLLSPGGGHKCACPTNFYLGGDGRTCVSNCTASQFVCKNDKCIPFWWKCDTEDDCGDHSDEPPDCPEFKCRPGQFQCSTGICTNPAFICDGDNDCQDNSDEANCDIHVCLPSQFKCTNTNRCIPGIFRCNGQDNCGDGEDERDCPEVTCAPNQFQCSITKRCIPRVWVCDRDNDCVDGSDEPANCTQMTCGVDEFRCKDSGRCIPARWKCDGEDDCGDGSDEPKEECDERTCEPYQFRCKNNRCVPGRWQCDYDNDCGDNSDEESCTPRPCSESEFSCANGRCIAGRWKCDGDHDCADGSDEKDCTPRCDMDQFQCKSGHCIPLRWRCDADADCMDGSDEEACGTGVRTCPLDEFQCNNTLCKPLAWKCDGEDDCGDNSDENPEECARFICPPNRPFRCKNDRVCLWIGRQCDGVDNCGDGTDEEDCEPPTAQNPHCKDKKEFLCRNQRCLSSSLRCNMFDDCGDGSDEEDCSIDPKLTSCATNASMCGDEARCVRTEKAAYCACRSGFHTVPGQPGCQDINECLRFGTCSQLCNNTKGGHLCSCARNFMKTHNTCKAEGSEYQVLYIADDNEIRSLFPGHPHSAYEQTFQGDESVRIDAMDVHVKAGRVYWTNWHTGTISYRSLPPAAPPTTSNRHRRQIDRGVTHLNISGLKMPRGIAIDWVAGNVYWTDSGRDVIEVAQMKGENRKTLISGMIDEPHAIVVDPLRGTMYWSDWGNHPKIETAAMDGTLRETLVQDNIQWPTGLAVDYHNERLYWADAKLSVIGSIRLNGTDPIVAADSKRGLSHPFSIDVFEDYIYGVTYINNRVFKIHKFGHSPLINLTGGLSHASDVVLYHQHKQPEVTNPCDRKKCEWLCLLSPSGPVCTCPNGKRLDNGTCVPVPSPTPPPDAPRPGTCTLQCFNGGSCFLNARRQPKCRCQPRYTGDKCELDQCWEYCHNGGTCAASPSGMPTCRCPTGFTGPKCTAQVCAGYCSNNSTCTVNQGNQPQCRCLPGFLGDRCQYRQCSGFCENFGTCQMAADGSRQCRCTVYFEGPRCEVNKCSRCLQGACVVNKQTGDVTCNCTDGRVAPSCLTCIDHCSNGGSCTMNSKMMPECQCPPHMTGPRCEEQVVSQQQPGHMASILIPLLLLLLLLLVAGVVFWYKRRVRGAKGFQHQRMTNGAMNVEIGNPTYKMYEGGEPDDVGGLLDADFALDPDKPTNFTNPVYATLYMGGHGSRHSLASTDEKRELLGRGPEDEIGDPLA
UniProt P30533, residues 35-357: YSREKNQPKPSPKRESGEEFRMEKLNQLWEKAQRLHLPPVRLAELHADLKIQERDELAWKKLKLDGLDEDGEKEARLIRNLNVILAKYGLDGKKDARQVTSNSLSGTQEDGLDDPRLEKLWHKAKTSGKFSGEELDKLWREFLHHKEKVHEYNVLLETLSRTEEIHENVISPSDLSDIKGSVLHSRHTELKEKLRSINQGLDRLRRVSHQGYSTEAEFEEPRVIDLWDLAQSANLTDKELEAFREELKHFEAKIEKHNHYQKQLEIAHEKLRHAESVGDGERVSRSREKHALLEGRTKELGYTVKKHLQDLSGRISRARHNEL

This test deals with murine low density lipoprotein receptor-related protein (LRP) / α2-macroglobulin receptor, CTGF receptor on murine cells (murine) (UniProt Q91ZX7). As to the kind of experiment: competition with 125I-CTGF on BMS-2 cells.

As to “RAP-GST (receptor associated protein - glutathione S-transferase) fusion protein (from UniProt P30533 35-357)”, the binding result is recorded as “binds”.

Values taken from US6555322.
